Common to all, as to assay: proximity labelling
The target in assay [1] is ADR1-L1-HA-TurboID (A. thaliana).
The target of assay [2] is HA-TurboID-ADR1(1C) (NRG1C-type N-terminally truncated ADR1) (A. thaliana).
The target in assay [3] is ADR1-L1-HA-TurboID (A. thaliana). This is another data set of the same source.
Assay [4] has the same target. This is another data set of the same source.

Read-outs that look alike come from different tables or passages of the source. These are yes or no findings as the source states them, for the method shown. In cells and extracts the contact can be indirect. A yes stands for co-enrichment or nearness to the bait. Other partners may have been found. For some assays here: A no says only that the protein was not detected with the bait. Tags and fused reporters may be left off the sequences shown.

B1: SAG101-3FLAG (Senescence-Associated Gene 101) (protein, UniProt Q4F883 28-537)
chain: KILEIHNPPYSNHDPGLQVSKKKKDSGLEFQIHREEKFTLVVFSAPPICRSSSSDSTLLHVKDKENPFPFLCSENNPSFSLHTPAFNLFTSASTSLTYLKSELLQTLKSEKPVIITGAALGGSVASLYTLWLLETIEPTLKRPLCITFGSPLIGDASLQQILENSVRNSCFLHVVSAQTRIKMDFFKPFGTFLICFDSGCVCIEDHVAVTELLNGVHDSGLVDYSQVLNRLDQSMLSLADSRLIPEDVIKGIEKRAEMKNLRFDMMFKKLNDMKISMAYIEWYKKKCKEVKIGYYDRFKTQLAFPSKEFDINIKNHHKSELNRFWKSVVEEVERRPQSDASILKRRFLFSGNNYRRMIEPLDIAEYYLEGRKEYRTTGRSHHYVMLEKWFGMESILIEKERCKKRDLSDLLTFDSCFWAEVEDSLIVINQLNTTVGMRDDVREVLTRKLVEFEGYVWEIITKREVSPEIFLEESSFMKWWKEYKKIKGFNSSYLTEFMNTRKYESYGKSQ
On to B1, for which the binding entry in assay [1] is recorded as “no binding”.

B2: PAD4-3FLAG (protein, UniProt Q9S745 1-541)
chain: MDDCRFETSELQASVMISTPLFTDSWSSCNTANCNGSIKIHDIAGITYVAIPAVSMIQLGNLVGLPVTGDVLFPGLSSDEPLPMVDAAILKLFLQLKIKEGLELELLGKKLVVITGHSTGGALAAFTALWLLSQSSPPSFRVFCITFGSPLLGNQSLSTSISRSRLAHNFCHVVSIHDLVPRSSNEQFWPFGTYLFCSDKGGVCLDNAGSVRLMFNILNTTATQNTEEHQRYGHYVFTLSHMFLKSRSFLGGSIPDNSYQAGVALAVEALGFSNDDTSGVLVKECIETATRIVRAPILRSAELANELASVLPARLEIQWYKDRCDASEEQLGYYDFFKRYSLKRDFKVNMSRIRLAKFWDTVIKMVETNELPFDFHLGKKWIYASQFYQLLAEPLDIANFYKNRDIKTGGHYLEGNRPKRYEVIDKWQKGVKVPEECVRSRYASTTQDTCFWAKLEQAKEWLDEARKESSDPQRRSLLREKIVPFESYANTLVTKKEVSLDVKAKNSSYSVWEANLKEFKCKMGYENEIEMVVDESDAMET
B2: the binding entry in assay [2] is “binds”.

B3: PAD4-ZZ-TEV-FLAG (protein, UniProt Q9S745 1-541)
chain: B2 chain
In the case of B3, the binding entry is given as “binds weakly” in assay [3] and “binds” in assay [4].

B4: EDS1-ZZ-TEV-FLAG (protein, UniProt Q9SU72 1-623)
chain: MAFEALTGINGDLITRSWSASKQAYLTERYHKEEAGAVVIFAFQPSFSEKDFFDPDNKSSFGEIKLNRVQFPCMRKIGKGDVATVNEAFLKNLEAIIDPRTSFQASVEMAVRSRKQIVFTGHSSGGATAILATVWYLEKYFIRNPNVYLEPRCVTFGAPLVGDSIFSHALGREKWSRFFVNFVSRFDIVPRIMLARKASVEETLPHVLAQLDPRKSSVQESEQRITEFYTRVMRDTSTVANQAVCELTGSAEAFLETLSSFLELSPYRPAGTFVFSTEKRLVAVNNSDAILQMLFYTSQASDEQEWSLIPFRSIRDHHSYEELVQSMGKKLFNHLDGENSIESTLNDLGVSTRGRQYVQAALEEEKKRVENQKKIIQVIEQERFLKKLAWIEDEYKPKCQAHKNGYYDSFKVSNEENDFKANVKRAELAGVFDEVLGLMKKCQLPDEFEGDIDWIKLATRYRRLVEPLDIANYHRHLKNEDTGPYMKRGRPTRYIYAQRGYEHYILKPNGMIAEDVFWNKVNGLNLGLQLEEIQETLKNSGSECGSCFWAEVEELKGKPYEEVEVRVKTLEGMLGEWITDGEVDDKEIFLEGSTFRKWWITLPKNHKSHSPLRDYMMDEITDT
Take B4: the binding result in assay [1] is recorded as “binds”; in assay [3] it was “binds weakly”; in assay [2], “binds”; in assay [4], “binds”.
